This experiment has as its system P388 leukemia ip, CD2F1 mice, survival T/C. Kind of experiment: NCI In Vivo Anticancer Drug Screen. Data for tumor model P388 Leukemia (intraperitoneal) in CD2F1 (CDF1) mice. The note with it: T/C endpoint: median survival time, higher T/C = longer survival.
The mark [1] stands for this setting: dose: 200.0 mg/kg/injection, schedule: Q01DX005 (ip), vehicle: Klucel (hydroxypropylcellulose) (HPC).
Where [2] appears, read: dose: 50.0 mg/kg/injection, schedule: Q01DX009 (ip), vehicle: saline with Tween-80.
Setting [3] is: dose: 200.0 mg/kg/injection, schedule: Q01DX009 (ip), vehicle: saline with Tween-80.
[4] abbreviates: dose: 200.0 mg/kg/injection, schedule: Q01DX005 (ip), vehicle: saline.
Where [5] appears, read: dose: 50.0 mg/kg/injection, schedule: Q01DX005 (ip), vehicle: saline with Tween-80.
Setting [6] is: dose: 100.0 mg/kg/injection, schedule: Q01DX005 (ip), vehicle: saline with Tween-80.
The mark [7] stands for this setting: dose: 200.0 mg/kg/injection, schedule: Q01DX005 (ip), vehicle: saline with Tween-80.
The mark [8] stands for this setting: dose: 100.0 mg/kg/injection, schedule: Q01DX005 (ip), vehicle: Klucel (hydroxypropylcellulose) (HPC).
The mark [9] stands for this setting: dose: 240.0 mg/kg/injection, schedule: Q01DX005 (ip), vehicle: saline with Tween-80.
The mark [10] stands for this setting: dose: 200.0 mg/kg/injection, schedule: Q01DX001 (ip), vehicle: saline with Tween-80.
Where [11] appears, read: dose: 400.0 mg/kg/injection, schedule: Q01DX001 (ip), vehicle: saline with Tween-80.
The mark [12] stands for this setting: dose: 50.0 mg/kg/injection, schedule: Q01DX009 (ip), vehicle: water.

SMILES strings stand for the structures. The list is a part of this screen's results and no random one: it gathers tests that were run many times, whatever their T/C, doses with no T/C, and many T/C values between a quarter and a half above the control. Further doses and runs are listed elsewhere. T/C is the treated group as % of the vehicle group. Some doses have a count of surviving animals in place of a T/C: the source files T/C as zero there, which appears to mark a toxic dose or a test without result, not a measured value. Some doses without a T/C left all or most animals alive at the check, yet need not have been tolerated: survival well below the control is almost never listed, so the zero probably covers shortened survival too. Counts of survivors are from the toxicity check (mostly the fifth day) where no day follows; animals may have died later. Schedules are NCI's codes, read here as Q, the interval in days (D) or hours (H), X, the number of doses. Some entries hold several experiments; their values stand side by side, smallest first. For survival time, this PubChem deposit counts one and a half times the control or more as active, and values a quarter to a half above the control carry no call in these data; other NCI protocols may use other cut-offs. Some T/C values carry the count of animals alive at the toxicity check (mostly the fifth day); where none is given, no animal had died by that day.

On to `O=C1SC(Nc2cccc([N+](=O)[O-])c2)/C(=N\N=C2/C(Nc3cccc([N+](=O)[O-])c3)SC(=O)N2Cc2ccccc2)N1Cc1ccccc1` (configuration not stated), for which, under setting [1], the survivor count is listed as 6 of 6.

As to `CCOC(=O)c1cc(OC(C)=O)c2ccc(OC)c(OC)c2c1`, the survivor count (dose: 1.56 mg/kg/injection, schedule: Q01DX009 (ip), vehicle: distilled water + Tween-80) is 6 of 6 and the survivor count (dose: 3.13 mg/kg/injection, schedule: Q01DX009 (ip), vehicle: distilled water + Tween-80) is given as 6 of 6. Besides, the T/C runs as follows: (dose: 12.5 mg/kg/injection, schedule: Q01DX009 (ip), vehicle: distilled water + Tween-80) 94, 99 [4 of 5 alive], 102, 130 % of control; (dose: 25.0 mg/kg/injection, schedule: Q01DX009 (ip), vehicle: distilled water + Tween-80) 91, 93, 95, 99 % of control.

For `O=C(O)c1cccc([N+](=O)[O-])c1C(=O)c1ccccc1`, the survivor count (dose: 200.0 mg/kg/injection, schedule: Q04DX003 (ip), vehicle: saline with Tween-80) is given as 6 of 6.

On to `OC(c1cc2c(Cl)cc(Cl)cc2c2cc(C(F)(F)F)ccc12)C1CCCCN1` (configuration not stated), for which the survivor count is, setting by setting: under setting [2], 5 of 6; (dose: 100.0 mg/kg/injection, schedule: Q01DX009 (ip), vehicle: saline with Tween-80) 1 of 6; under setting [3], 0 of 6.

With `CN(c1ccccc1)c1c(Cl)c(=O)oc2c1ccc1occc12`, under “dose: 60.0 mg/kg/injection, schedule: Q01DX005 (ip), vehicle: saline”, the survivor count is reported as 6 of 6.

With `CCCC(C)N(CC)CCNc1cc(OC)cc2cccnc12` (configuration not stated), the survivor count under setting [4] is given as 0 of 5.

For `O=C(Nc1ccc(Cl)cc1)OCC12COCN1COC2`, the survivor count under setting [3] is 3 of 6.

Take `CCOC(=O)C1=CNc2c(C#N)cnn2C1(C(=O)OCC)c1cn(C)c2ccccc12` (configuration not stated): the survivor count is recorded as 6 of 6 under setting [5], 6 of 6 under setting [6] and 6 of 6 under setting [7].

On to `N=c1c2c(ncn1CCc1ccccc1)CCN(Cc1ccccc1)C2`, for which the survivor count (dose: 80.0 mg/kg/injection, schedule: Q01DX009 (ip), vehicle: saline with Tween-80) was 1 of 6.

For the compound `Cc1cc2[n-]c1/C=c1\[n-]/c(c(CCC(=O)O)c1C)=C\c1[n-]c(c(C)c1CCC(=O)O)/C=c1/cc(C)/c([n-]1)=C/2.[Co]`, the survivor count is 5 of 5 (dose: 50.0 mg/kg/injection, schedule: Q01DX005 (ip), vehicle: Klucel (hydroxypropylcellulose) (HPC)) and 5 of 5 under setting [8].

As for `O=C(NO)Nc1cc(Cl)cc(Cl)c1`, the survivor count under setting [9] is recorded as 1 of 6.

Consider `c1ccc(CN2CCCC3CCCC32)cc1` (configuration not stated), for which the survivor count under setting [10] was 0 of 6 and the survivor count under setting [11] is given as 0 of 6.

Consider `CCc1c2oc(C(=O)c3ccc(Cl)cc3)cc2n2ccccc12`, for which, for the setting “dose: 240.0 mg/kg/injection, schedule: Q01DX005 (ip), vehicle: Klucel + Tween-80”, the survivor count is recorded as 6 of 6.

`COC1=C2C[C@@H](C)C[C@@H](OC)[C@@H](O)[C@H](C)/C=C(\C)[C@@H](OC(N)=O)[C@H](OC)/C=C\C=C(/C)C(=O)NC(=CC1=O)C2=O`: the survivor count (dose: 3.0 mg/kg/injection, schedule: Q01DX009 (ip), vehicle: saline with Tween-80) is 6 of 6.

Turning to `CCN(CC)CCNc1ccccc1`, for the setting “dose: 240.0 mg/kg/injection, schedule: Q01DX005 (ip), vehicle: saline”, the survivor count is given as 0 of 6.

With `CN=C1SC(C)(C)NN1C`, the survivor count is on record as 1 of 6 under setting [8] and 0 of 6 under setting [1].

`O=C(Nc1ccc(NC(=O)Nc2cccc(C3=NCCCN3)c2)cc1)Nc1ccc(C2=NCCCN2)cc1`: the T/C by setting is: (dose: 5.0 mg/kg/injection, schedule: Q01DX009 (ip), vehicle: saline with Tween-80) 131 % of control; (dose: 6.6 mg/kg/injection, schedule: Q01DX009 (ip), vehicle: saline with Tween-80) 136 % of control; (dose: 10.0 mg/kg/injection, schedule: Q01DX009 (ip), vehicle: saline with Tween-80) 136 and 140 % of control; (dose: 15.0 mg/kg/injection, schedule: Q01DX009 (ip), vehicle: saline with Tween-80) 145 % of control. The survivor count by setting is: (dose: 20.0 mg/kg/injection, schedule: Q04DX003 (ip), vehicle: saline with Tween-80) 1 of 6; (dose: 100.0 mg/kg/injection, schedule: Q04DX003 (ip), vehicle: saline) 0 of 6; (dose: 200.0 mg/kg/injection, schedule: Q04DX003 (ip), vehicle: saline) 0 of 6; (dose: 400.0 mg/kg/injection, schedule: Q04DX003 (ip), vehicle: saline) 0 of 6.

Regarding `Cc1ccccc1-[n+]1noc(N)n1`, the T/C by setting is: (dose: 22.0 mg/kg/injection, schedule: Q01DX009 (ip), vehicle: water) 130 % of control; (dose: 25.0 mg/kg/injection, schedule: Q01DX009 (ip), vehicle: water) 129 % of control; (dose: 33.0 mg/kg/injection, schedule: Q01DX009 (ip), vehicle: water) 141 % of control; under setting [12], 146 % of control. In addition, the survivor count under setting [12] was 5 of 6; the survivor count (dose: 75.0 mg/kg/injection, schedule: Q01DX009 (ip), vehicle: water) was 4 of 6; the survivor count (dose: 100.0 mg/kg/injection, schedule: Q01DX009 (ip), vehicle: water) is recorded as 0 of 6.

For `O=C(O)c1cc(-n2c(-c3ccccc3)cc3c2CCc2ccccc2-3)ccc1O`, the survivor count under setting [7] was 4 of 6.

Take `O=S(=O)(CCl)OCCCl`: the T/C runs as follows: under setting [2], 143 % of control; (dose: 100.0 mg/kg/injection, schedule: Q01DX001 (ip), vehicle: saline with Tween-80) 131 % of control [5 of 6 alive]. Also, the survivor count runs as follows: (dose: 150.0 mg/kg/injection, schedule: Q01DX009 (ip), vehicle: saline with Tween-80) 0 of 6; under setting [10], 1 of 6; under setting [11], 0 of 6.

For the compound `N#CC(c1ccc2c(c1)OCO2)N1CCCC1` (configuration not stated), the survivor count is reported as 2 of 6 (dose: 50.0 mg/kg/injection, schedule: Q01DX001 (ip), vehicle: Klucel (hydroxypropylcellulose) (HPC)) and 2 of 6 (dose: 200.0 mg/kg/injection, schedule: Q01DX001 (ip), vehicle: Klucel (hydroxypropylcellulose) (HPC)).

With `COc1nc(NC2OC(CO)C(O)C(O)C2O)c(C(=O)CCl)c(=O)n1C` (configuration not stated), under “dose: 60.0 mg/kg/injection, schedule: Q01DX005 (ip), vehicle: saline with Tween-80”, the survivor count is recorded as 6 of 6.

`CCOc1ccc(C(C)c2cc3c(cc2OCC)OCO3)cc1` (configuration not stated): the T/C reads like this: under setting [5], 136 % of control; under setting [6], 125 % of control. For the same compound, the survivor count by setting is: under setting [6], 3 of 6 and 4 of 6; under setting [7], 0 of 6; (dose: 400.0 mg/kg/injection, schedule: Q01DX005 (ip), vehicle: saline with Tween-80) 0 of 6.

Regarding `CCOC(=O)C(C(C)=O)C(c1cc(OC)c(OC)c(OC)c1)c1cc2c(cc1O)OCO2` (configuration not stated), the T/C under setting [9] was 143 % of control.

Take `Cn1cccc1C(C=C(c1ccccc1)c1ccccc1)c1cccn1C`: the survivor count is given as 6 of 6 under setting [6] and 6 of 6 under setting [7].

Take `CC(=O)OCc1c(-c2ccccc2)c(=O)c1=O`: the survivor count is, setting by setting: (dose: 120.0 mg/kg/injection, schedule: Q01DX005 (ip), vehicle: Klucel (hydroxypropylcellulose) (HPC)) 0 of 6; (dose: 240.0 mg/kg/injection, schedule: Q01DX005 (ip), vehicle: Klucel (hydroxypropylcellulose) (HPC)) 0 of 6.

As for `CC1OCN2CCCCC12` (configuration not stated), the T/C (dose: 100.0 mg/kg/injection, schedule: Q01DX005 (ip), vehicle: saline) was 127 and 131 % of control; the T/C under setting [4] was 133 and 139 % of control.

These data come from PubChem BioAssay AID330 (DTP/NCI, 2004).
